PubChem BioAssay AID1259405 | NCATS – 2018
The deposit covers about 50,000 reagents; shown is a part drawn at random. Over the whole deposit, about 4,000 (8%) were called active. 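Mouse siRNA library applied to hamster cells; one well for each siRNA.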 The numbers tell different reagents against one gene apart. No sequences are given here.

Aim: 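Silenced genes that increase secreted GFP made by CHO cells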 (primary screen)
Cells: Chinese hamster CHO-K1 ovary cells with stable secreted eGFP expression
Knock-down reagent: single siRNA against mouse genes, 0.8 pmol siRNA per well (2 µl of 400 nM stock)
Time to read-out: 3 days
Measurement: 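Per-well intracellular GFP measured by laser scanning cytometry, plus viability from ATP luminescence, each relative to plate median of non-targeting control wells, in %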
Scale: GFP, % of control: higher = more GFP per well, higher productivity; viability (ATP), % of control: higher = more viable cells (more ATP)
Active means: 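a knock-down is called active if GFP reaches 120% or more of non-targeting control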

Zfp423 #1 gave GFP, % of control 57.1; viability (ATP), % of control 51.8; inactive.
After knock-down of Zfp423 #2, the record shows GFP, % of control 61.9; viability (ATP), % of control 66.4; inactive.
Zfp423 #3 gave GFP, % of control 33.1; viability (ATP), % of control 50.2; inactive.
With knock-down of Hnf1a #1 the results were GFP, % of control 118; viability (ATP), % of control 96.9; inactive.
Depletion of Hnf1a #2 resulted in: GFP, % of control 106; viability (ATP), % of control 83.5; inactive.
Silencing of Hnf1a #3 came out at: GFP, % of control 85.7; viability (ATP), % of control 102; inactive.
Ikzf2 #1 showed GFP, % of control 114; viability (ATP), % of control 83.1; inactive.
Ikzf2 #2 scored GFP, % of control 71; viability (ATP), % of control 64.8; inactive.
With knock-down of Dlx5 #1, the record shows GFP, % of control 66; viability (ATP), % of control 69.9; inactive.
For Dlx5 #2, the entry reads GFP, % of control 107; viability (ATP), % of control 98.6; inactive.
With knock-down of Dlx5 #3 the results were GFP, % of control 68.6; viability (ATP), % of control 80.5; inactive.
Knock-down of Svs3a #1 came out at: GFP, % of control 139; viability (ATP), % of control 74.9; active.
Silencing of Svs3a #2 gave: GFP, % of control 96.1; viability (ATP), % of control 74.4; inactive.
For Svs3a #3, the entry reads GFP, % of control 114; viability (ATP), % of control 103; inactive.
For Slc11a2 #1 the deposit lists GFP, % of control 31.4; viability (ATP), % of control 24.9; inactive.
For Slc11a2 #2 the deposit lists GFP, % of control 49.2; viability (ATP), % of control 64.7; inactive.
Against Slc11a2 #3, the values are GFP, % of control 96.9; viability (ATP), % of control 83.3; inactive.
For Anapc15 #1 the deposit lists GFP, % of control 128; viability (ATP), % of control 70; active.
Anapc15 #2 gave GFP, % of control 24; viability (ATP), % of control 29.8; inactive.
For Anapc15 #3, the entry reads GFP, % of control 71.3; viability (ATP), % of control 84; inactive.
Silencing of Or5p6 #1 resulted in: GFP, % of control 64.5; viability (ATP), % of control 50; inactive.
With knock-down of Or5p6 #2 the results were GFP, % of control 79.8; viability (ATP), % of control 86.1; inactive.
Or5p6 #3 gave GFP, % of control 87.9; viability (ATP), % of control 68.3; inactive.
Gbe1 #1 scored GFP, % of control 129; viability (ATP), % of control 62.3; active.
For Gbe1 #2, the values are GFP, % of control 92.4; viability (ATP), % of control 70.6; inactive.
Depletion of Gbe1 #3 came out at: GFP, % of control 109; viability (ATP), % of control 99; inactive.
Depletion of Smurf2 #1 gave: GFP, % of control 78.8; viability (ATP), % of control 81.7; inactive.
Smurf2 #2 gave GFP, % of control 101; viability (ATP), % of control 71.2; inactive.
Smurf2 #3 showed GFP, % of control 74.7; viability (ATP), % of control 107; inactive.

Active calls, of those listed so far:
Svs3a #1 — GFP, % of control: 139; viability (ATP), % of control: 74.9; Outcome: active
Anapc15 #1 — GFP, % of control: 128; viability (ATP), % of control: 70; Outcome: active
Gbe1 #1 — GFP, % of control: 129; viability (ATP), % of control: 62.3; Outcome: active
